Data taken from patent publication US7244712B2, “Aminoglycoside antibiotics and methods of using same” (priority 2004, dated 2007).
At least one compound was matched to its structure with a doubt left.

Tests used:
[1] = biological target: human A-site decoding region construct (H), L-RNA; assay: Fluorescence anisotropy binding, L-RNA human A-site decoding region construct H; conditions: competition with CRP; read-out: Dissociation constant of aminoglycoside complex with L-H
Source text: (§1) Experiments were designed to probe the stereospecificity of aminoglycoside binding to the RNA constructs shown in FIG. 9 because these small rRNA constructs mimic ribosomal decoding region RNA function. The three constructs shown include a bacterial 16S A-site rRNA construct (B) (27), its human counterpart (H), and an RNA aptamer (J6f1) selected to bind to the aminoglycoside tobramycin (12,15,16).
(§2) L-aminoglycoside binding to D-RNA sequences are energetically equivalent to binding the enantiotopic D-aminoglycoside to an L-RNA sequence. Initial binding experiments were carried out using enantiomerically pure L-RNA constructs, B, H, and J6f1 (FIG. 9A-C) and D-aminoglycoside compounds. […] The constructs were tested for aminoglycoside binding using the fluorescence anisotropy method described in Example 4. […]
(§3) 5-Carboxytetramethylrhodamine-labeled paromomycin (CRP) and tobramycin (CRT) concentrations were determined spectroscopically at 550 nm using a molar extinction coefficient of 6.00×10 4 M −1 cm −1. Fluorescence anisotropy measurements were performed on a Perkin-Elmer LS-50B luminescence spectrometer equipped with a thermostat accurate to ±0.1° C. as indicated previously (Wang, Y., Hamasaki, K., & Rando, R. R. (1997) Biochemistry 36, 768-779). The tracer solution was excited at 550 nm and monitored at 580 nm. […]

RNA aptamer J6f1, L-RNA = assay: Fluorescence anisotropy binding, L-J6f1 tobramycin binding aptamer; conditions: competition with CRT; read-out: Dissociation constant of aminoglycoside complex with L-J6f1
Source text: as §1, §2, §3

[2] = biological target: bacterial 16S A-site rRNA construct (B), L-RNA; assay: Fluorescence anisotropy binding, L-RNA bacterial A-site decoding region construct B; conditions: competition with CRP; read-out: Dissociation constant of aminoglycoside complex with L-B
Source text: as §1, §2, §3

RNA aptamer J6f1, D-RNA = assay: Fluorescence anisotropy binding, D-J6f1 tobramycin binding aptamer; conditions: competition with CRT; read-out: Dissociation constant of aminoglycoside complex with D-J6f1
Source text: as §1, §2, §3

[3] = biological target: human A-site decoding region construct (H), D-RNA; assay: Fluorescence anisotropy binding, D-RNA human A-site decoding region construct H; conditions: competition with CRP; read-out: Dissociation constant of aminoglycoside complex with D-H
Source text: as §1, §2, §3

70S ribosome = assay: Fluorescence anisotropy binding to 70S ribosomes; conditions: competition with CRP, E. coli ribosomes; read-out: Dissociation constant (KD) with 70S ribosome
Procedure: After establishing the lack of stereospecificity in the binding of aminoglycosides to the A-site RNA constructs (FIG. 9A-C) where the binding affinity, KD, is about 0.1 μM to about 100 μM, the stereospecificity of aminoglycoside binding to intact ribosomes was determined. Both yeast and E. coli ribosomes were prepared and aminoglycoside binding was measured using fluorescence anisotropy methods. For example, fluorescence anisotropy methods recited in Wang, Y., and Rando, R. R. Chem. Biol. (1995) 2, 281-290; and Wang, Y., Hamasaki, K., and Rando, R. R. Biochemistry (1997) 36,768-779. CRP was used as the binding probe. […]
as §3
Equation 2 is used for the calculation of the KD values in the competition binding assay. […] Both Kd and KD were determined by non-linear curve fitting using the equations described above, and are presented as mean values of three independent measurements. […]

NC[C@H]1O[C@H](O[C@H]2[C@H](O)[C@@H](O[C@H]3O[C@H](CO)[C@@H](O)[C@H](N)[C@H]3O)[C@H](N)C[C@@H]2N)[C@H](O)[C@@H](O)[C@@H]1O [Kanamycin] was tested, and the Kd [1] was 2160 ± 230 nM, the Kd (RNA aptamer J6f1, L-RNA) was 3340 ± 250 nM and the Kd [2] was 810 ± 95 nM. The Kd (RNA aptamer J6f1, D-RNA) was 22 ± 4.7 nM, the Kd [3] was 1370 ± 210 nM and the Kd (70S ribosome) was 1510 ± 460 nM.
